In PMC10439933 one finds binding data, which are given here for three molecules.

The chains behind the UniProt entries cited, without tags or fusion partners.
UniProt Q92769: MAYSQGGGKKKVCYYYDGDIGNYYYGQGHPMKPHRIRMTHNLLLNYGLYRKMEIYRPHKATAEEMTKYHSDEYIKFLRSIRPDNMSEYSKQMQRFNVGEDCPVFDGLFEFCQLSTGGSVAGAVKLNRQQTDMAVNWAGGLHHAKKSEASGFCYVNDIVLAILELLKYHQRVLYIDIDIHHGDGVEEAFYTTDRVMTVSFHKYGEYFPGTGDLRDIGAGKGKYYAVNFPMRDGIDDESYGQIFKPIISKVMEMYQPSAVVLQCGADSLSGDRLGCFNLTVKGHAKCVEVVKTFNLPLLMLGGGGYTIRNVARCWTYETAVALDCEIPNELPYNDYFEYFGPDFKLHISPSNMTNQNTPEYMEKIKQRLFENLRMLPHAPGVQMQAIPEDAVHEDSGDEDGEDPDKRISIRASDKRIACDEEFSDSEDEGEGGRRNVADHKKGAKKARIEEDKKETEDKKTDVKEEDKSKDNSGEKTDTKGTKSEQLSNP

No constants are given. Whether binding was seen depends on the method and setting. Binding seen in cells or lysates may run through a third protein. Some entries that bind do so weakly or less than the wild type.

In assay [1] the target is HDAC2 (human (endogenous in patient-derived BTSC lines)) (UniProt Q92769). The experiment in a line: co-IP; endogenous proteins of BTSC lines (BT67, BT147); cells dual crosslinked (dithiobis(succinimidyl propionate) 30 min, 1% formaldehyde 10 min); IP buffer 50 mM Tris-HCl pH 8.0, 150 mM NaCl, 1.0 mM EDTA, 0.5% Nonidet P-40; 500 ug extract with 5 ug antibody (HDAC1, HDAC2, SMAD3, SKI or SMAD4) overnight at 4 °C, protein G Dynabeads; also sequential co-IP; cells also treated with romidepsin or DMSO (24, 48, 72 h), with SMAD3 KO, HDAC2 KO or SMAD3 overexpression.

Assay [2] shares this target. The experiment in a line: proximity ligation; in situ PLA (Duolink) in adherent BTSCs fixed in 3.7% formaldehyde; pairs of primary antibodies; PLA foci counted in 30 nuclei; romidepsin or vehicle for 24 h.
Assay [3] deals with T1, SMAD4 (human (endogenous in patient-derived BTSC lines)), Q13485.
T1 chain: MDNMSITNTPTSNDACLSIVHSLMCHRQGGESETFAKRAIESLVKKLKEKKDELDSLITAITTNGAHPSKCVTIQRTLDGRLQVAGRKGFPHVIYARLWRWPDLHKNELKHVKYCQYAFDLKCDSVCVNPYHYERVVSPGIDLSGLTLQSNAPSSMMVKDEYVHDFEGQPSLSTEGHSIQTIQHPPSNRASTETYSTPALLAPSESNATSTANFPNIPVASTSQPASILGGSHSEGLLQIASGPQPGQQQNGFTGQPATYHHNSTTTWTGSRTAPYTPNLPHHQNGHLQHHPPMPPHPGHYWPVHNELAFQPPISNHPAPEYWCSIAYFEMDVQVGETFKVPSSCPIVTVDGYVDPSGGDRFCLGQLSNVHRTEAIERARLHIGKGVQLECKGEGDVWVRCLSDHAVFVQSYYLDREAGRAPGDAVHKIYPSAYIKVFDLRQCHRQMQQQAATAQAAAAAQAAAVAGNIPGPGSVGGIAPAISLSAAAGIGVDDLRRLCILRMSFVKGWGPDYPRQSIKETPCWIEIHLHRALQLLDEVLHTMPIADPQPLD
The experiment in a line: co-IP; endogenous proteins of BTSC lines (BT67, BT147); cells dual crosslinked (dithiobis(succinimidyl propionate) 30 min, 1% formaldehyde 10 min); IP buffer 50 mM Tris-HCl pH 8.0, 150 mM NaCl, 1.0 mM EDTA, 0.5% Nonidet P-40; 500 ug extract with 5 ug antibody (HDAC1, HDAC2, SMAD3, SKI or SMAD4) overnight at 4 °C, protein G Dynabeads; also sequential co-IP; cells also treated with romidepsin or DMSO (24, 48, 72 h), …. To be noted: remark: other sources report otherwise.

B1: SKI (protein, UniProt P12755 1-728)
chain: MEAAAGGRGCFQPHPGLQKTLEQFHLSSMSSLGGPAAFSARWAQEAYKKESAKEAGAAAVPAPVPAATEPPPVLHLPAIQPPPPVLPGPFFMPSDRSTERCETVLEGETISCFVVGGEKRLCLPQILNSVLRDFSLQQINAVCDELHIYCSRCTADQLEILKVMGILPFSAPSCGLITKTDAERLCNALLYGGAYPPPCKKELAASLALGLELSERSVRVYHECFGKCKGLLVPELYSSPSAACIQCLDCRLMYPPHKFVVHSHKALENRTCHWGFDSANWRAYILLSQDYTGKEEQARLGRCLDDVKEKFDYGNKYKRRVPRVSSEPPASIRPKTDDTSSQSPAPSEKDKPSSWLRTLAGSSNKSLGCVHPRQRLSAFRPWSPAVSASEKELSPHLPALIRDSFYSYKSFETAVAPNVALAPPAQQKVVSSPPCAAAVSRAPEPLATCTQPRKRKLTVDTPGAPETLAPVAAPEEDKDSEAEVEVESREEFTSSLSSLSSPSFTSSSSAKDLGSPGARALPSAVPDAAAPADAPSGLEAELEHLRQALEGGLDTKEAKEKFLHEVVKMRVKQEEKLSAALQAKRSLHQELEFLRVAKKEKLREATEAKRNLRKEIERLRAENEKKMKEANESRLRLKRELEQARQARVCDKGCEAGRLRAKYSAQIEDLQVKLQHAEADREQLRADLLREREAREHLEKVVKELQEQLWPRARPEAAGSEGAAELEP
B1: the binding result in assay [1] and in assay [2] was “binds” in each case.

B2: SMAD3, P84022 1-425 (protein)
chain: MSSILPFTPPIVKRLLGWKKGEQNGQEEKWCEKAVKSLVKKLKKTGQLDELEKAITTQNVNTKCITIPRSLDGRLQVSHRKGLPHVIYCRLWRWPDLHSHHELRAMELCEFAFNMKKDEVCVNPYHYQRVETPVLPPVLVPRHTEIPAEFPPLDDYSHSIPENTNFPAGIEPQSNIPETPPPGYLSEDGETSDHQMNHSMDAGSPNLSPNPMSPAHNNLDLQPVTYCEPAFWCSISYYELNQRVGETFHASQPSMTVDGFTDPSNSERFCLGLLSNVNRNAAVELTRRHIGRGVRLYYIGGEVFAECLSDSAIFVQSPNCNQRYGWHPATVCKIPPGCNLKIFNNQEFAALLAQSVNQGFEAVYQLTRMCTIRMSFVKGWGAEYRRQTVTSTPCWIELHLNGPLQWLDKVLTQMGSPSIRCSSVS
On to B2, for which the binding result in assay [3] is “binds”.

B3: SNON (protein, UniProt P12757-1 1-684)
chain: MENLQTNFSLVQGSTKKLNGMGDDGSPPAKKMITDIHANGKTINKVPTVKKEHLDDYGEAPVETDGEHVKRTCTSVPETLHLNPSLKHTLAQFHLSSQSSLGGPAAFSARHSQESMSPTVFLPLPSPQVLPGPLLIPSDSSTELTQTVLEGESISCFQVGGEKRLCLPQVLNSVLREFTLQQINTVCDELYIYCSRCTSDQLHILKVLGILPFNAPSCGLITLTDAQRLCNALLRPRTFPQNGSVLPAKSSLAQLKETGSAFEVEHECLGKCQGLFAPQFYVQPDAPCIQCLECCGMFAPQTFVMHSHRSPDKRTCHWGFESAKWHCYLHVNQKYLGTPEEKKLKIILEEMKEKFSMRSGKRNQSKTDAPSGMELQSWYPVIKQEGDHVSQTHSFLHPSYYLYMCDKVVAPNVSLTSAVSQSKELTKTEASKSISRQSEKAHSSGKLQKTVSYPDVSLEEQEKMDLKTSRELCSRLDASISNNSTSKRKSESATCNLVRDINKVGIGLVAAASSPLLVKDVICEDDKGKIMEEVMRTYLKQQEKLNLILQKKQQLQMEVKMLSSSKSMKELTEEQQNLQKELESLQNEHAQRMEEFYVEQKDLEKKLEQIMKQKCTCDSNLEKDKEAEYAGQLAELRQRLDHAEADRQELQDELRQEREARQKLEMMIKELKLQILKSSKTAKE
On to B3, for which the binding result in assay [1] is given as “no binding”.
